No constants are given. Whether binding was seen depends on the method and setting. In cells and extracts the contact can be indirect. A yes stands for co-enrichment or nearness to the bait. Other partners may have been found. Where a sequence is shown, tags or fusion partners need not be part of it.
Target: T1, PinX1-3×Flag wild type, expressed in HCT116 cells (human) (UniProt Q96BK5)
T1 sequence: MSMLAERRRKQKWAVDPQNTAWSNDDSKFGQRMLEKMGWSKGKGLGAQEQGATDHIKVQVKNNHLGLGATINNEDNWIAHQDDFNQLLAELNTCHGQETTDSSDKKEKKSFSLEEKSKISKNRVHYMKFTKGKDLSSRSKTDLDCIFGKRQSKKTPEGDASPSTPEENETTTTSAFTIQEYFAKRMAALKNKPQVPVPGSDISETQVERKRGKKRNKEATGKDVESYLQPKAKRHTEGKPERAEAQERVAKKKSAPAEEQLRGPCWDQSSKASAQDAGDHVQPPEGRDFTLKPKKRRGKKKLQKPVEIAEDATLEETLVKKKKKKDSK
Assay: affinity purification with mass spectrometry; 3×Flag-PinX1 WT or 6KQ transfected into HCT116 cells, lysis in BC100, anti-Flag M2 beads, SDS-PAGE, LC-MS/MS

Amino acid sequences for entries named in this document (tags omitted).
UniProt P06748: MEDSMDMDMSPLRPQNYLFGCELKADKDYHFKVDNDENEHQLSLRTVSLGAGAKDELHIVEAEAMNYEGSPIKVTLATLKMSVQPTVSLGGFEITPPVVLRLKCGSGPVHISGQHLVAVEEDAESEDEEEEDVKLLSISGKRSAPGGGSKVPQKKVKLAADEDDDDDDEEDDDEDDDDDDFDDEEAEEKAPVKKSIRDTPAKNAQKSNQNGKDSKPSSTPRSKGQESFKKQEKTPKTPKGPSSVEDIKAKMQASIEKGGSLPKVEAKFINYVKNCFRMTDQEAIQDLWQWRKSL

## NPM, endogenous in HCT116 cells (from UniProt P06748 1-294)
  binding: binds
